# The other results are listed elsewhere or left out.
# B1: FliC (Clostridium difficile) (protein)
# chain: MRVNTNVSALIANNQMGRNVNGQSKSMEKLSSGVRIKRAADDAAGLAISEKMRAQIKGLDQAGRNVQDGISVVQTAEGSLEETGNILQRMRTLSLQSANEINNTEEREKIADELTQLKDEIERISSSTEFNGKKLLDGTSSTIRLQVGASYGTNVSGTSNNNNEIKIQLVNTASIMASAGITTASIGSMKAGGTTGTDAAKTMVSSLDAALKSLNSSRAKLGAQQNRLESTQNNLNNTLENVTAAESRIRDTDVASEMVNLSKMNILVQASQSMLAQANQQPQGVLQLLG
# Legend:
# Assay in all cases: glycan array binding signal (z-score within array); higher = stronger binding
# Conditions in all cases: glycan notation: IUPAC condensed, linker removed
# [1] = target: Neu5Ac(a2-3)Gal(b1-3)GlcNAc(b1-2)Man(a1-3)[Neu5Ac(a2-3)Gal(b1-3)GlcNAc(b1-2)Man(a1-6)]Man(b1-4)GlcNAc(b1-4)GlcNAc
# In short: (§1)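 The Consortium for Functional Glycomics database supplied 3228 glycan arrays, of which those lacking an available protein sequence were dropped. The binding signal, a within-array Z-score, was averaged across arrays of the same protein sequence and across linkers. Negative scores can be read as non-binding.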
# [2] = target: Neu5Ac(a2-3)Gal(b1-3)GlcNAc(b1-3)Gal(b1-3)GlcNAc
# In short: as §1
# [3] = target: Neu5Ac(a2-3)Gal(b1-3)GlcNAc(b1-3)Gal(b1-4)GlcNAc
# In short: as §1
# [4] = target: Neu5Ac(a2-3)Gal(b1-3)GlcNAc(b1-3)GalNAc
# In short: as §1
# [5] = target: Neu5Ac(a2-3)Gal(b1-3)GlcNAc(b1-4)Gal(b1-4)Glc
# In short: as §1
# [6] = target: Neu5Ac(a2-3)Gal(b1-3)GlcNAc(b1-6)GalNAc
# In short: as §1
# [7] = target: Neu5Ac(a2-3)Gal(b1-3)GlcNAc6S
# In short: as §1
# [8] = target: Neu5Ac(a2-3)Gal(b1-3)[Fuc(a1-4)]GlcNAc
# In short: as §1
# [9] = target: Neu5Ac(a2-3)Gal(b1-3)[Fuc(a1-4)]GlcNAc(b1-3)Gal(b1-3)[Fuc(a1-4)]GlcNAc
# In short: as §1
# [10] = target: Neu5Ac(a2-3)Gal(b1-3)[Fuc(a1-4)]GlcNAc(b1-3)Gal(b1-4)[Fuc(a1-3)]GlcNAc
# In short: as §1
# [11] = target: Neu5Ac(a2-3)Gal(b1-3)[GlcNAc(b1-6)]GalNAc
# In short: as §1
# [12] = target: Neu5Ac(a2-3)Gal(b1-3)[Neu5Ac(a2-6)]GalNAc
# In short: as §1
# [13] = target: Neu5Ac(a2-3)Gal(b1-3)[Neu5Ac(a2-6)]GlcNAc(b1-3)[Fuc(a1-3)[Gal(b1-4)]GlcNAc(b1-6)]Gal(b1-4)Glc
# In short: as §1
# [14] = target: Neu5Ac(a2-3)Gal(b1-3)]Neu5Ac(a2-3)Gal(b1-4)]GlcNAc
# In short: as §1
# Neu5Ac(a2-3)Gal(b1-4)Glc = target: Neu5Ac(a2-3)Gal(b1-4)Glc
# In short: as §1
# [15] = target: Neu5Ac(a2-3)Gal(b1-4)GlcNAc
# In short: as §1
# [16] = target: Neu5Ac(a2-3)Gal(b1-4)GlcNAc(b1-2)Man
# In short: as §1
# [17] = target: Neu5Ac(a2-3)Gal(b1-4)GlcNAc(b1-2)Man(a1-3)[GlcNAc(b1-4)][Neu5Ac(a2-3)Gal(b1-4)GlcNAc(b1-2)Man(a1-6)]Man(b1-4)GlcNAc(b1-4)GlcNAc
# In short: as §1
# [18] = target: Neu5Ac(a2-3)Gal(b1-4)GlcNAc(b1-2)Man(a1-3)[Neu5Ac(a2-3)Gal(b1-4)GlcNAc(b1-2)Man(a1-6)]Man(b1-4)GlcNAc(b1-4)GlcNAc
# In short: as §1
# [19] = target: Neu5Ac(a2-3)Gal(b1-4)GlcNAc(b1-2)Man(a1-3)[Neu5Ac(a2-3)Gal(b1-4)GlcNAc(b1-2)Man(a1-6)]Man(b1-4)GlcNAc(b1-4)[Fuc(a1-6)]GlcNAc
# In short: as §1
# [20] = target: Neu5Ac(a2-3)Gal(b1-4)GlcNAc(b1-2)Man(a1-3)[Neu5Ac(a2-6)Gal(b1-4)GlcNAc(b1-2)Man(a1-6)]Man(b1-4)GlcNAc(b1-4)GlcNAc
# In short: as §1
# [21] = target: Neu5Ac(a2-3)Gal(b1-4)GlcNAc(b1-2)[Neu5Ac(a2-3)Gal(b1-4)GlcNAc(b1-4)]Man(a1-3)[GlcNAc(b1-4)][Neu5Ac(a2-3)Gal(b1-4)GlcNAc(b1-2)[Neu5Ac(a2-3)Gal(b1-4)GlcNAc(b1-6)]Man(a1-6)]Man(b1-4)GlcNAc(b1-4)GlcNAc
# In short: as §1
# [22] = target: Neu5Ac(a2-3)Gal(b1-4)GlcNAc(b1-2)[Neu5Ac(a2-3)Gal(b1-4)GlcNAc(b1-4)]Man(a1-3)[GlcNAc(b1-4)][Neu5Ac(a2-3)Gal(b1-4)GlcNAc(b1-4)Man(a1-6)]Man(b1-4)GlcNAc(b1-4)GlcNAc
# In short: as §1
# [23] = target: Neu5Ac(a2-3)Gal(b1-4)GlcNAc(b1-2)[Neu5Ac(a2-3)Gal(b1-4)GlcNAc(b1-6)]Man(a1-6)[Neu5Ac(a2-3)Gal(b1-4)GlcNAc(b1-2)Man(a1-3)]Man(b1-4)GlcNAc(b1-4)GlcNAc
# In short: as §1
# [24] = target: Neu5Ac(a2-3)Gal(b1-4)GlcNAc(b1-2)[Neu5Ac(a2-3)Gal(b1-4)GlcNAc(b1-6)]Man(a1-6)[Neu5Ac(a2-3)Gal(b1-4)GlcNAc(b1-2)Man(a1-3)][GlcNAc(b1-4)]Man(b1-4)GlcNAc(b1-4)GlcNAc
# In short: as §1
# [25] = target: Neu5Ac(a2-3)Gal(b1-4)GlcNAc(b1-3)Gal
# In short: as §1
# [26] = target: Neu5Ac(a2-3)Gal(b1-4)GlcNAc(b1-3)Gal(b1-3)GlcNAc
# In short: as §1
# [27] = target: Neu5Ac(a2-3)Gal(b1-4)GlcNAc(b1-3)Gal(b1-4)GlcNAc
# In short: as §1
# [28] = target: Neu5Ac(a2-3)Gal(b1-4)GlcNAc(b1-3)Gal(b1-4)GlcNAc(b1-2)Man(a1-3)[Neu5Ac(a2-3)Gal(b1-4)GlcNAc(b1-3)Gal(b1-4)GlcNAc(b1-2)Man(a1-6)]Man(b1-4)GlcNAc(b1-4)GlcNAc
# In short: as §1
# [29] = target: Neu5Ac(a2-3)Gal(b1-4)GlcNAc(b1-3)Gal(b1-4)GlcNAc(b1-3)Gal(b1-4)GlcNAc
# In short: as §1
# [30] = target: Neu5Ac(a2-3)Gal(b1-4)GlcNAc(b1-3)Gal(b1-4)GlcNAc(b1-3)Gal(b1-4)GlcNAc(b1-2)Man(a1-3)[Neu5Ac(a2-3)Gal(b1-4)GlcNAc(b1-3)Gal(b1-4)GlcNAc(b1-3)Gal(b1-4)GlcNAc(b1-2)Man(a1-6)]GalNAc
# In short: as §1
# [31] = target: Neu5Ac(a2-3)Gal(b1-4)GlcNAc(b1-3)Gal(b1-4)GlcNAc(b1-3)GalNAc
# In short: as §1
# [32] = target: Neu5Ac(a2-3)Gal(b1-4)GlcNAc(b1-3)Gal(b1-4)GlcNAc(b1-3)[Neu5Ac(a2-3)Gal(b1-4)GlcNAc(b1-3)Gal(b1-4)GlcNAc(b1-6)]GalNAc
# In short: as §1
# [33] = target: Neu5Ac(a2-3)Gal(b1-4)GlcNAc(b1-3)Gal(b1-4)GlcNAc(b1-6)[Gal(b1-3)]GalNAc
# In short: as §1
# [34] = target: Neu5Ac(a2-3)Gal(b1-4)GlcNAc(b1-3)Gal(b1-4)[Fuc(a1-3)]GlcNAc
# In short: as §1
# [35] = target: Neu5Ac(a2-3)Gal(b1-4)GlcNAc(b1-3)GalNAc
# In short: as §1
# [36] = target: Neu5Ac(a2-3)Gal(b1-4)GlcNAc(b1-3)[Neu5Ac(a2-3)Gal(b1-4)GlcNAc(b1-6)]GalNAc
# In short: as §1
# [37] = target: Neu5Ac(a2-3)Gal(b1-4)GlcNAc(b1-6)GalNAc
# In short: as §1
binder,measurement,setting,value
B1,glycan array binding signal (z-score),[1],0.337
same,glycan array binding signal (z-score),[2],-0.381
same,glycan array binding signal (z-score),[3],-0.428
same,glycan array binding signal (z-score),[4],-0.618
same,glycan array binding signal (z-score),[5],0.17
same,glycan array binding signal (z-score),[6],-0.886
same,glycan array binding signal (z-score),[7],-0.405
same,glycan array binding signal (z-score),[8],-0.945
same,glycan array binding signal (z-score),[9],-0.186
same,glycan array binding signal (z-score),[10],0.087
same,glycan array binding signal (z-score),[11],0.028
same,glycan array binding signal (z-score),[12],-0.163
same,glycan array binding signal (z-score),[13],-0.645
same,glycan array binding signal (z-score),[14],-0.68
same,glycan array binding signal (z-score),Neu5Ac(a2-3)Gal(b1-4)Glc,0.117
same,glycan array binding signal (z-score),[15],-0.17
same,glycan array binding signal (z-score),[16],0.128
same,glycan array binding signal (z-score),[17],-0.31
same,glycan array binding signal (z-score),[18],-0.741
same,glycan array binding signal (z-score),[19],0.377
same,glycan array binding signal (z-score),[20],-0.336
same,glycan array binding signal (z-score),[21],-0.418
same,glycan array binding signal (z-score),[22],-0.689
same,glycan array binding signal (z-score),[23],-0.275
same,glycan array binding signal (z-score),[24],-0.653
same,glycan array binding signal (z-score),[25],-0.656
same,glycan array binding signal (z-score),[26],-0.215
same,glycan array binding signal (z-score),[27],-0.43
same,glycan array binding signal (z-score),[28],1.02
same,glycan array binding signal (z-score),[29],-0.25
same,glycan array binding signal (z-score),[30],6.63
same,glycan array binding signal (z-score),[31],-0.31
same,glycan array binding signal (z-score),[32],0.181
same,glycan array binding signal (z-score),[33],1.2
same,glycan array binding signal (z-score),[34],-0.061
same,glycan array binding signal (z-score),[35],0.027
same,glycan array binding signal (z-score),[36],-0.612
same,glycan array binding signal (z-score),[37],-0.348

# From the supplement of paper PMC8728848
